# PubChem BioAssay AID488789 (Broad Institute, 2010)
# Sequences of proteins named here, by UniProt entry; tags and fusion partners are left off.
# UniProt P00761, whole entry, looked up: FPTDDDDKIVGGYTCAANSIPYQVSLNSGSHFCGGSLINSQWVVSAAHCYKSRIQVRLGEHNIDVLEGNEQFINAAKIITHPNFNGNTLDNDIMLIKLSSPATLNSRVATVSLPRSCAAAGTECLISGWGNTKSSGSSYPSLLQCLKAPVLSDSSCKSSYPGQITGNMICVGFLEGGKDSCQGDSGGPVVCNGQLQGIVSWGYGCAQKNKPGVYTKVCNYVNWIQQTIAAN
# Inconclusive means that the source gave no clear call. Such entries were picked first, then a sample of the others. The source made the active and inactive calls.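 Rule for the calls: active = samples whose fitted half-maximal inhibition concentration is no more than ten times the top valid dose tested; inconclusive = flat response between -70 and -30, or invalid curve fit; inactive = flat within 30 of zero, potency above limit, or signal rising.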
# Molecular target: Trypsin (Sus scrofa) (UniProt P00761)
# Test: trypsin protease activity blockade – biochemical, quenched peptide fluorescence, cherry-pick, selectivity assay for Rce1 protease inhibitor project, dose response (AID 488789)
# Details: porcine trypsin, quenched peptide cleavage fluorescence; at 10 µM (top of the series)
row,Compound,"activity change, negative = inhibition"
1,CN1CCN(c2ccc([N+](=O)[O-])c(Sc3nncn3C)c2)CC1,inactive: 6.55%
2,C=CCn1c(O)c(C(CC)=Nc2ccc(N(CC)CC)cc2)c(=O)[nH]c1=O,inactive: 11.1%
3,O=C(COc1ccc2ccc(=O)oc2c1)N1CCC(C(=O)O)(c2ccccc2)CC1,inconclusive: 8.33%
4,Cc1oc(-c2cccs2)nc1CSCC(=O)N1CCC2(CC1)OCCO2,inconclusive: 10.9%
5,Cc1ccc(-c2nc3ccc(C)cn3c2CC(=O)N(C)C)cc1,inconclusive: -16.8%
6,CCOC(=O)c1c(-c2ccc(OC)cc2)oc2ccc(OC(=O)N(C)C)cc12,inconclusive: -25.6%
7,CN(C)CCNC(=O)c1cccn(Cc2cc(C(F)(F)F)cc(C(F)(F)F)c2)c1=O,inconclusive: 8.53%
8,COc1ccc2c3c([nH]c2c1)C(C)=NCC3,inconclusive: -59.8%
9,O=[N+]([O-])c1ccc(C[n+]2c(-c3ccccc3)cc(-c3ccccc3)cc2-c2ccccc2)cc1,inactive: 87.5%
